According to patent publication US8357635B2, “Microbiocides” (Syngenta Crop Protection LLC, priority 2009, dated 2013):
Some results were stated once for a whole list of compounds, not compound by compound.

What was measured:
[1] = system: Pyrenophora teres; assay: Action against Pyrenophora teres (net blotch) on barley leaf segments; assay type: in vivo; settings: 0.02% active ingredient sprayed on barley leaf segments, assessed 4 days after inoculation
Procedure: (§1) Barley leaf segments were placed on agar in multiwell plates (24-well format) and sprayed with test solutions (0.02% active ingredient). After drying, the leaf disks were inoculated with a spore suspension of the fungus. After appropriate incubation the activity of a compound was assessed 4 days after inoculation as preventive fungicidal activity.

[2] = system: Erysiphe graminis f.sp. tritici; assay: Action against Erysiphe graminis f.sp. tritici (wheat powdery mildew), wheat leaf segments; assay type: in vivo; settings: 0.02% active ingredient sprayed on wheat leaf segments, assessed 7 days after inoculation
Procedure: as §1, with “Wheat leaf” for “Barley leaf”, “assessed 7” for “assessed 4”

[3] = system: Botrytis cinerea; assay: Action against Botrytis cinerea - fungal growth assay; assay type: cell-based; settings: 0.002% active ingredient, PDB broth, 24° C., photometric after 3-4 days
Procedure: (§2) Conidia of the fungus from cryogenic storage was directly mixed into nutrient broth (PDB potato dextrose broth). After placing a (DMSO) solution of the test compounds (0.002% active ingredient) into a microtiter plate (96-well format) the nutrient broth containing the fungal spores was added. The test plates were incubated at 24° C. and the inhibition of growth was measured photometrically after 3-4 days. The activity of a compound was expressed as fungal growth inhibition (0=no growth inhibition, ratings of 80% to 99% mean good to very good inhibition, 100%=complete inhibition).

[4] = system: Septoria tritici; assay: Action against Septoria tritici - fungal growth assay; assay type: cell-based; settings: 0.002% active ingredient, PDB broth, 24° C., photometric after 72 hrs
Procedure: as §2, with “storage were” for “storage was”, “was determined” for “was measured”, “after 72 hrs.” for “after 3-4 days.”

[5] = system: Mycosphaerella arachidis (Cercospora arachidicola); assay: Action against Mycosphaerella arachidis (early leaf spot of groundnut) - fungal growth assay; assay type: cell-based; settings: 0.002% active ingredient, PDB broth, 24° C., photometric after 6-7 days
Procedure: as §2, with “storage were” for “storage was”, “after 6-7” for “after 3-4”

[6] = system: Puccinia recondita; assay: Protective action against Puccinia recondita (brown rust) on wheat leaf segments; assay type: in vivo; settings: 0.02% active ingredient sprayed on wheat leaf segments, assessed 8 days after inoculation
Procedure: as §1, with “Wheat leaf” for “Barley leaf”, “assessed 8” for “assessed 4”

[7] = system: Monographella nivalis (Fusarium nivale, Microdochium nivale); assay: Action against Monographella nivalis (snow mould) - fungal growth assay; assay type: cell-based; settings: 0.002% active ingredient, PDB broth, 24° C., photometric after 72 hrs
Procedure: as §2, with “storage were” for “storage was”, “a DMSO-solution” for “a (DMSO) solution”, “after 72 hrs” for “after 3-4 days. The activity of a compound was expressed as fungal growth inhibition”

CON(C(=O)c1cn(C)nc1C(F)F)C(C)C1CC1c1ccc(Cl)cc1Cl (stereo not drawn) [Compound 1.018B, trans-3-difluoromethyl-1-methyl-1H-pyrazole-4-carboxylic acid {1-[2-(2,4-dichlorophenyl)-cyclopropyl]-ethyl}-methoxy-amide]
≥ 80%: preventive fungicidal activity (inhibition) [1] | preventive fungicidal activity (inhibition) [2] | fungal growth inhibition [3] | fungal growth inhibition [4] | fungal growth inhibition [5] | preventive fungicidal activity (inhibition) [6] | inhibition of growth [7]
